Laboratory results from paper PMC5595311.

Molecular target: T1, TRIF (Flag- or HA-tagged) (murine) (UniProt Q80UF7)
T1 sequence: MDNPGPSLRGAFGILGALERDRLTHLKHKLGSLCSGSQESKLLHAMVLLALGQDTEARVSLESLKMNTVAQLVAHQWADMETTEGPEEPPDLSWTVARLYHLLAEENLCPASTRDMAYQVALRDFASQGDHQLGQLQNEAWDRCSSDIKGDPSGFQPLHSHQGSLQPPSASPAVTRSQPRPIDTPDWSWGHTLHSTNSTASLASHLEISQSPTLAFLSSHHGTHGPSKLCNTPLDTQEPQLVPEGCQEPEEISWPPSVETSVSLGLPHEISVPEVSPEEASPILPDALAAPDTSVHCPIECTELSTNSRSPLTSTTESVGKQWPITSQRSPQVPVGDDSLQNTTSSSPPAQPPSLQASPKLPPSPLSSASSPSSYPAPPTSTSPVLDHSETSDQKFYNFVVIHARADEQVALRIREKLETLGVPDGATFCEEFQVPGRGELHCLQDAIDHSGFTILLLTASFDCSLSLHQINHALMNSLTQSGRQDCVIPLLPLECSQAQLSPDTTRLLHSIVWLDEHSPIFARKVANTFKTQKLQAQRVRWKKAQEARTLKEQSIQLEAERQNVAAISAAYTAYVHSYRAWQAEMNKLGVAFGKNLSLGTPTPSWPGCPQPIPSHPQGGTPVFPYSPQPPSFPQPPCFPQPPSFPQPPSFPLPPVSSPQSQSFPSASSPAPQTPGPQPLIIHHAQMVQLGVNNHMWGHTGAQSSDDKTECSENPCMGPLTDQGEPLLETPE
Test: co-IP; HEK293 cells transfected with the indicated plasmids for 24 hours, co-immunoprecipitation and immunoblotting with the indicated antibodies

binding: binds
Substance: OPTN

No constants are given. Whether binding was seen depends on the method and setting. In cells and extracts the contact can be indirect. Binding can be weak; no strength is given. Sequences can lack the tags named with a protein.
